For experiment [1], the target named is caveolin-1 (human (endogenous in MCF-7)) (UniProt Q03135). Description: co-IP; endogenous proteins from MCF-7 lysate (150 mM NaCl, 50 mM Tris-HCl, 10 mM HEPES pH 7.4, 0.1% NP-40, 0.25% sodium deoxycholate); 2 μg polyclonal anti-caveolin-1 or anti-BK-α antibody, 4 h, 4 °C, protein-G-Sepharose beads overnight; Western blot. Background: Immunoblotting shows a protein as a band on a membrane.

The chains behind the UniProt entries cited, without tags or fusion partners.
UniProt Q03135: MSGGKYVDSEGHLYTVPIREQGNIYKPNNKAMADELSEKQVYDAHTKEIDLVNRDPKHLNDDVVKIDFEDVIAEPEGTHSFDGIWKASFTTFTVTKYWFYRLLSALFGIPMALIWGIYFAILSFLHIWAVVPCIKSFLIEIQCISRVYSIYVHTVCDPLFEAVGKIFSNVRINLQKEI
UniProt Q12791: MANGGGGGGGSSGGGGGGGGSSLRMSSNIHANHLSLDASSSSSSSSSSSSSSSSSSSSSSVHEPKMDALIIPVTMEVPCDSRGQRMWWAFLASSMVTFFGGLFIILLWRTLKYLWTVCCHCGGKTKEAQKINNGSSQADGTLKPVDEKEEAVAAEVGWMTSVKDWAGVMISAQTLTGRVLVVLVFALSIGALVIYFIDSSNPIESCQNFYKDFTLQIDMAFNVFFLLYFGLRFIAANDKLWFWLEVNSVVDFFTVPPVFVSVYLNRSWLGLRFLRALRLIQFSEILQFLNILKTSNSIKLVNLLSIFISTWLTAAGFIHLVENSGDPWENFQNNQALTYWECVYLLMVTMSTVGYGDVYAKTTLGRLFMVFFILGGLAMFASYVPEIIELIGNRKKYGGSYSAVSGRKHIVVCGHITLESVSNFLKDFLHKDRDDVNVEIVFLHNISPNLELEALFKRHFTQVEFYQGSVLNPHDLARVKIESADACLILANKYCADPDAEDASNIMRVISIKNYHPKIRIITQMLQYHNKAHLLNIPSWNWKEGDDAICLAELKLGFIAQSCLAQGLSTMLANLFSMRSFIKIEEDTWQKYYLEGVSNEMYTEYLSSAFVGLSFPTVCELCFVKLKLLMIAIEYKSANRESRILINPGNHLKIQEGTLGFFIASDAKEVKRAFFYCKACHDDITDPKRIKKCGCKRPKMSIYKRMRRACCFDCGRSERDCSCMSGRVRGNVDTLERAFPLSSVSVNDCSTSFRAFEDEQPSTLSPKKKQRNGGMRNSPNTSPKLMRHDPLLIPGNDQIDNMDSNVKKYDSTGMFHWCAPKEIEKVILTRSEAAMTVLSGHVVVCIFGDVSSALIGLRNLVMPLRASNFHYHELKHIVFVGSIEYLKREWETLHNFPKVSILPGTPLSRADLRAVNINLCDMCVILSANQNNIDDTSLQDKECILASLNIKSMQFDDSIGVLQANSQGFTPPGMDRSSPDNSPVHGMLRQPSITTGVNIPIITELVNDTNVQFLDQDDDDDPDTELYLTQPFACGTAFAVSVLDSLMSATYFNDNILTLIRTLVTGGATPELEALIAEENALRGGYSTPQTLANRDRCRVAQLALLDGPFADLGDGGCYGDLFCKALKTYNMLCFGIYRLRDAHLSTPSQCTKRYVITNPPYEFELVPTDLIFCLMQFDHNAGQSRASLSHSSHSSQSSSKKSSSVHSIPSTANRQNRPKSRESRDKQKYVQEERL

Experiment [2] has as its target large conductance Ca2+-activated potassium (BKCa) channel, pore-forming alpha-subunit (human (endogenous in MCF-7)) (UniProt Q12791). Described as above.

No constants are given. Whether binding was seen depends on the method and setting. In cells and extracts the contact can be indirect. Some binding calls cover weakened binding; strength is not graded here.

In the case of “large conductance Ca2+-activated potassium (BKCa) channel, pore-forming alpha-subunit (from UniProt Q12791 1-1236)”, in experiment [1], the binding result was “binds”.
Regarding caveolin-1 (from UniProt Q03135 1-178), in experiment [2], the binding entry is listed as “binds”.

These data come from article PMC4264191.
